No constants are given. Whether binding was seen depends on the method and setting. In cells and extracts the contact can be indirect. Binding can be weak; no strength is given. Tags and fused reporters may be left off the sequences shown.
Molecular target: T1, Myc-tagged Cep85 (human) (UniProt Q6P2H3)
T1 sequence: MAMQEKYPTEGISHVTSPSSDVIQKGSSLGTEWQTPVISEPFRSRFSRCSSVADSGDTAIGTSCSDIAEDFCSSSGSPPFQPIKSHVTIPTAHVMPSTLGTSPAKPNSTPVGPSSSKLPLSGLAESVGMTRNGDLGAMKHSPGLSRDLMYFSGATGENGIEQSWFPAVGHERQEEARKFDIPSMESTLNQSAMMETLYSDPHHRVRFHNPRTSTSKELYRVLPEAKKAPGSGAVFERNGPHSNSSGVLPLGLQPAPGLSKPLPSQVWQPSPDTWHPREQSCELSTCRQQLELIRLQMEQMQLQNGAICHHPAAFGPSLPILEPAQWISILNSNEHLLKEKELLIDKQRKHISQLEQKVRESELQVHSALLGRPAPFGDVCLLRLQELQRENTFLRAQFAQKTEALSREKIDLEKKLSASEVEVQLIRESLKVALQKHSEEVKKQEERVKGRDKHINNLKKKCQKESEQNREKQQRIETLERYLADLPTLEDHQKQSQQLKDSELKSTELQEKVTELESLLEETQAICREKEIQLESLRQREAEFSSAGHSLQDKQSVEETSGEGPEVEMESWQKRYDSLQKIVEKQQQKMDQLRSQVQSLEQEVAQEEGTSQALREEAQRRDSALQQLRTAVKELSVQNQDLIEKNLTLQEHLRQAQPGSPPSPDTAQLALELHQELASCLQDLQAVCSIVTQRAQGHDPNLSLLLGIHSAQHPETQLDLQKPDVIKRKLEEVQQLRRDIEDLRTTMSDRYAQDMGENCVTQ
Test: co-IP; Myc–Cep85 constructs and HA–Nek2A constructs co-expressed in HEK293T cells; lysis in 50 mM Tris-HCl pH 7.4, 150 mM NaCl, 1 mM EDTA, 0.5% NP-40; antibody 2 h at 4°C, Protein A/G PLUS-Agarose; western blotting

Row | Substance | binding
1 | HA–Nek2A truncated mutant D1 (N-terminal region) (human (cloned from HEK293T)) (domain or fragment) | no binding
2 | HA–Nek2A truncated mutant D2 (C-terminal region) (human (cloned from HEK293T)) (domain or fragment) | binds
